We go through 15 compounds from PubChem BioAssay AID248 (DTP/NCI, 2004).

In this experiment the test system is L1210 leukemia ip in BDF1 mice, survival T/C. The experiment in a line: NCI In Vivo Anticancer Drug Screen. Data for tumor model L1210 Leukemia (intraperitoneal) in B6D2F1 (BDF1) mice. The following applies: T/C endpoint: mean survival time, higher T/C = longer survival.
Where [1] appears, read: dose: 256.0 mg/kg/injection, schedule: Q01DX009 (ip), vehicle: saline with Tween-80.
The mark [2] stands for this setting: dose: 400.0 mg/kg/injection, schedule: Q01DX001 (ip), vehicle: saline.
[3] abbreviates: dose: 200.0 mg/kg/injection, schedule: Q01DX001 (ip), vehicle: saline.
Where [4] appears, read: dose: 400.0 mg/kg/injection, schedule: Q04DX003 (ip), vehicle: saline with Tween-80.
[5] abbreviates: dose: 400.0 mg/kg/injection, schedule: Q01DX001 (ip), vehicle: carboxymethylcellulose (CMC).

The structures appear in SMILES notation. The list shows only some results of the screen, not a fair sample: it gathers tests that were run many times, whatever their T/C, doses with no T/C, and many T/C values between a quarter and a half above the control. Other doses and runs of a compound stand elsewhere. T/C is the treated group as % of the vehicle group. Some entries give survivors of the animals treated and no T/C: the source holds a T/C of zero for them, seemingly a mark for toxic or unscored doses. Some survivor counts are full or nearly so, which does not show that the dose was tolerated: the source hardly ever lists a survival T/C far under the control, and the zero likely stands for such cases as well. Survivors were counted at the toxicity check, usually on the fifth day, unless a day is given; later deaths do not show. Schedule codes are those of the source, taken here to give the interval after Q, in days (D) or hours (H), and the number of doses after X. Signs of the kind (2×) count equal records among those shown. Some entries were tested several times; the values are given in rising order. Where survival is the endpoint, this PubChem deposit counts one and a half times the control or more as active, and values a quarter to a half above the control carry no call in these data; other NCI protocols may use other cut-offs. Some T/C values are followed by the survivors on the day toxicity was checked, most often the fifth; without a count, all were alive then. Some schedule codes hold Z or #, which are not explained here.

For `Nc1nncs1`, the T/C is 137 % of control (dose: 30.0 mg/kg/injection, schedule: Q01DX015 (ip), vehicle: saline); 131 % of control (dose: 30.0 mg/kg/injection, schedule: Q01DX Z (ip), vehicle: carboxymethylcellulose (CMC)); 133 % of control (dose: 32.0 mg/kg/injection, schedule: Q01DX009 (ip), vehicle: Klucel (hydroxypropylcellulose) (HPC)); 115, 118, 124, 135 % of control (dose: 32.0 mg/kg/injection, schedule: Q01DX009 (ip), vehicle: saline with Tween-80); 108, 124 (2×), 127, 128, 129, 131, 134, 135 % of control [4 of 6 alive] (dose: 32.0 mg/kg/injection, schedule: Q01DX009 (ip), vehicle: saline, evaluated on day 30); 128 and 138 % of control (dose: 32.0 mg/kg/injection, schedule: Q01DX009 (ip), vehicle: saline, evaluated on day 60). In addition, the T/C was 142 % of control (dose: 40.0 mg/kg/injection, schedule: Q01DX015 (ip), vehicle: saline); 125 % of control (dose: 40.0 mg/kg/injection, schedule: Q01DX Z (ip), vehicle: carboxymethylcellulose (CMC)); 140 % of control (dose: 62.0 mg/kg/injection, schedule: Q04DX003 (ip), vehicle: saline); 104 [5 of 6 alive], 126, 136, 143 % of control [5 of 6 alive] (dose: 64.0 mg/kg/injection, schedule: Q01DX009 (ip), vehicle: saline with Tween-80); 110, 124, 126, 129, 131, 133, 143, 148, 150 % of control (dose: 64.0 mg/kg/injection, schedule: Q01DX009 (ip), vehicle: saline, evaluated on day 30); 131 and 138 % of control (dose: 64.0 mg/kg/injection, schedule: Q01DX009 (ip), vehicle: saline, evaluated on day 60). In addition, the T/C reads like this: (dose: 123.0 mg/kg/injection, schedule: Q04DX003 (ip), vehicle: saline) 138 % of control; (dose: 125.0 mg/kg/injection, schedule: Q04DX003 (ip), vehicle: saline) 125 % of control (2×); (dose: 128.0 mg/kg/injection, schedule: Q01DX009 (ip), vehicle: saline with Tween-80) 94 (2×), 113 [5 of 6 alive], 133 % of control [5 of 6 alive]; (dose: 128.0 mg/kg/injection, schedule: Q01DX009 (ip), vehicle: saline, evaluated on day 30) 90, 92 [5 of 6 alive], 101, 102, 108, 119, 145, 150, 155 % of control; (dose: 128.0 mg/kg/injection, schedule: Q01DX009 (ip), vehicle: saline, evaluated on day 60) 101 and 131 % of control; (dose: 250.0 mg/kg/injection, schedule: Q04DX003 (ip), vehicle: saline) 134 and 140 % of control. Further, the T/C under setting [1] is 88 % of control [5 of 6 alive]; the T/C (dose: 256.0 mg/kg/injection, schedule: Q01DX009 (ip), vehicle: saline, evaluated on day 30) is 90, 98, 104 [5 of 6 alive], 112 % of control; the T/C (dose: 256.0 mg/kg/injection, schedule: Q01DX009 (ip), vehicle: saline, evaluated on day 60) is 95 % of control; the T/C (dose: 256.0 mg/kg/injection, schedule: Q04DX003 (ip), vehicle: saline) is 129 % of control; the T/C under setting [2] was 126 % of control; the T/C (dose: 500.0 mg/kg/injection, schedule: Q04DX003 (ip), vehicle: saline) is 148 % of control. For the same compound, the T/C (dose: 512.0 mg/kg/injection, schedule: Q04DX003 (ip), vehicle: saline) was 135 % of control; the T/C (dose: 900.0 mg/kg/injection, schedule: Q01DX001 (ip), vehicle: saline) is 129 % of control; the T/C (dose: 1350.0 mg/kg/injection, schedule: Q01DX001 (ip), vehicle: saline) was 127 % of control. For the same compound, the survivor count (dose: 100.0 mg/kg/injection, schedule: Q01DX009 (ip), vehicle: saline) is on record as 6 of 6; the survivor count (dose: 200.0 mg/kg/injection, schedule: Q01DX009 (ip), vehicle: saline) was 5 of 6; the survivor count (dose: 256.0 mg/kg/injection, schedule: Q01DX009 (ip), vehicle: Klucel (hydroxypropylcellulose) (HPC)) was 6 of 6; the survivor count under setting [1] is 3 of 6 and 5 of 6; the survivor count (dose: 256.0 mg/kg/injection, schedule: Q01DX009 (ip), vehicle: saline) was 4 of 6, 5 of 6, 10 of 10; the survivor count (dose: 400.0 mg/kg/injection, schedule: Q01DX009 (ip), vehicle: saline) was 2 of 6. For the same compound, the survivor count (dose: 1000.0 mg/kg/injection, schedule: Q04DX003 (ip), vehicle: saline) is 0 of 6.

As for `CCOC(=O)c1cnc2ccccc2c1Cl`, the survivor count was 6 of 6 under setting [3] and 6 of 6 under setting [2].

On to `O=C1C=CCCCC1`, for which the survivor count (dose: 200.0 mg/kg/injection, schedule: Q04DX003 (ip), vehicle: saline with Tween-80) was 3 of 6 and the survivor count under setting [4] is given as 0 of 6.

Take `CCOC(=O)c1cn[nH]c1/N=N/N(C)C`: the T/C is, setting by setting: (dose: 72.0 mg/kg/injection, schedule: Q01DX009 (ip), vehicle: carboxymethylcellulose (CMC)) 126 % of control; (dose: 120.0 mg/kg/injection, schedule: Q01DX009 (ip), vehicle: carboxymethylcellulose (CMC)) 134 % of control; (dose: 200.0 mg/kg/injection, schedule: Q01DX009 (ip), vehicle: carboxymethylcellulose (CMC)) 135 % of control [4 of 6 alive]; under setting [5], 141 % of control; (dose: 600.0 mg/kg/injection, schedule: Q01DX001 (ip), vehicle: carboxymethylcellulose (CMC)) 129 % of control.

As to `C=CC[n+]1ccccc1Br`, the survivor count is 0 of 6 (dose: 250.0 mg/kg/injection, schedule: Q01DX015 (ip), vehicle: water) and 0 of 6 (dose: 500.0 mg/kg/injection, schedule: Q01DX015 (ip), vehicle: water).

For `C=CC(=O)OCC(C)([N+](=O)[O-])[N+](=O)[O-]`, the survivor count is, setting by setting: (dose: 200.0 mg/kg/injection, schedule: Q01DX009 (ip), vehicle: saline with Tween-80) 1 of 6; under setting [4], 0 of 6.

Take `Cc1ccc(SSc2ccc(C)cc2)cc1`: the survivor count (dose: 150.0 mg/kg/injection, schedule: Q01DX009 (ip), vehicle: saline) is given as 3 of 6 and the survivor count (dose: 300.0 mg/kg/injection, schedule: Q01DX009 (ip), vehicle: saline) is listed as 3 of 6.

With `O=C1c2ccccc2C(=O)N1c1cc(=O)[nH]c(=O)[nH]1`, the survivor count (dose: 100.0 mg/kg/injection, schedule: Q04DX003 (ip), vehicle: Klucel (hydroxypropylcellulose) (HPC)) was 2 of 6.

Regarding `CCCCCCCCCC(C)CCCCC` (stereo not drawn), the survivor count (dose: 400.0 mg/kg/injection, schedule: Q01DX001 (ip), vehicle: saline with Tween-80) is 6 of 6.

Turning to `CCOc1c(CNC(=O)CCl)cc(N)cc1CNC(=O)CCl`, the survivor count was 1 of 4 under setting [3] and 0 of 4 under setting [2].

For `COC1C=CC2C3Cc4ccc(O)c5c4C2(CCN3C)C1O5` (stereo not drawn), the survivor count (dose: 300.0 mg/kg/injection, schedule: Q01DX001 (ip), vehicle: saline) is 0 of 6.

For `Nc1ncnc2nc(-c3ccc(OCCCOc4ccccc4)c(Cl)c3)[nH]c12`, the survivor count (dose: 25.0 mg/kg/injection, schedule: Q01DX001 (ip), vehicle: saline with Tween-80) is 6 of 6 (2×) and the survivor count (dose: 100.0 mg/kg/injection, schedule: Q01DX001 (ip), vehicle: saline with Tween-80) is on record as 6 of 6.

`CCCC(=O)N1CCCCC1`: the survivor count is 3 of 3 (dose: 200.0 mg/kg/injection, schedule: Q04DX002 (ip), vehicle: Klucel (hydroxypropylcellulose) (HPC)) and 1 of 3 (dose: 400.0 mg/kg/injection, schedule: Q04DX002 (ip), vehicle: Klucel (hydroxypropylcellulose) (HPC)).

Take `CCN(CC)c1ccc(NCS(=O)(=O)O)cc1`: the survivor count is on record as 2 of 6 (dose: 200.0 mg/kg/injection, schedule: Q01DX009 (ip), vehicle: saline sonified); 5 of 6 (dose: 200.0 mg/kg/injection, schedule: Q04DX003 (ip), vehicle: saline); 0 of 6 (dose: 400.0 mg/kg/injection, schedule: Q04DX003 (ip), vehicle: saline).

For the compound `Nc1c([N+](=O)[O-])cc([N+](=O)[O-])c2ccccc12`, the survivor count runs as follows: (dose: 200.0 mg/kg/injection, schedule: Q01DX001 (ip), vehicle: carboxymethylcellulose (CMC)) 0 of 6; under setting [5], 0 of 6.
